≈ marks a conversion by molar mass, not a printed value.
Test system: MDA-MB-231 cells
Assay: MTT cytotoxicity assay, 72 hr
Format: cell-based
Details: MTT viability assay
Protocol: In vitro cytotoxicity study. The cytotoxicity of blank Cr-PVA-LA NPs was evaluated on MDA-MB-231 and MCF-7 cells. The in vitro anti-tumor effects of DOX loaded Cr-PVA-LA NPs were evaluated on MDA-MB-231 cell in comparison with the commercial DOX. MDA-MB-231 and MCF-7 cells were seeded in 96-well plates a day prior to the treatment at a density of 3000 cell/well. After 72 hr incubation with different concentrations of blank Cr-PVA-LA or DOX loaded Cr-PVA-LA NPs in a humidified 37° C., MTT was added to each well and further incubated for 2 hr. The absorbance at 486 nm was detected using a microplate ELISA reader(SpectraMax M2, Molecular Devices, USA). Values were reported as the means for each triplicate samples.

## COc1cccc2c1C(=O)c1c(O)c3c(c(O)c1C2=O)C[C@@](O)(C(=O)CO)C[C@@H]3O[C@H]1C[C@H](N)[C@H](O)[C@H](C)O1 [DOX, doxorubicin]
  IC50: 0.3456 µg/mL (≈ 0.636 µM)

From patent US11135309B2, “Poly(vinyl alcohol) nanocarriers” (THE REGENTS OF THE UNIVERSITY OF CALIFORNIA, priority 2015, dated 2021)
